This passage reports z-score results from PubChem BioAssay AID1508600 (Functional Genomics Laboratory (NCATS/FGL), 2020).

In all, about 53,000 sequences went through this assay and about 3,700 (7%) were called active.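 The calls were made as follows: active = gene knockdowns whose robust z-score for IL-1 alpha signal is at least 2 or at most -2, so actives lie on both sides; inactive = the rest.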 This is one part of the list.

This assay can be described thus: Components of the Cytosolic LPS Sensing Pathway: Gene Identification via Genome-wide siRNA Screen.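 Also: robust z of the log signal after scaling to non-targeting control siRNA wells of the plate.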 The following applies: RAW264.7 macrophages, IL-1a HTRF, actives lie on both sides, screened at 100 nM (by protocol), cells primed 5 h with Pam3CSK4 first. Put shortly:
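Knockdown: 100 nM siRNA, 48h, RAW264.7. Stimulation: Pam3CSK4 5 h, then LipidA via TransIT-TKO 24 h. Output: supernatant IL-1a HTRF, negative-control-normalized, log robust z-score; viability by CellTiter-Glo.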
On the technique in general: Time-resolved FRET reads energy transfer from a long-lived donor to a nearby acceptor.
Take GCUUAACCUCAGAGAUGAUTT against Mbip: the z-score was inactive: -0.841.

For the sequence GGAAUUAUUCAUGACACAGTT against Hspa9, the z-score was inactive: 1.32.

For the sequence GGAGAUGGGCUUCUAUAUUTT against Nle1, the z-score is inactive: 0.342.

As to GCAAGAAUUAAGUCAGUGGTT against Exoc3l, the z-score is inactive: -1.56.

GGAAUCCAGAACUUGAUCGTT against Mfn1: the z-score was inactive: 0.384.

Regarding GCUCGUGUACCUCUAUCUGTT against Ap2b1, the z-score was inactive: 0.0179.

Regarding GCCUUGCCCUGACUAUGUUTT against Paqr3, the z-score is inactive: 0.0997.

For the sequence GCUAAAGAACGGUAUAUCGTT against Agxt2, the z-score is inactive: 0.645.

With GGAUCUGGGAAUCACCUCUTT against Trpv6, the z-score was inactive: -1.82.

Regarding GGAAGAAGUCCAACAGCACTT against Foxj3, the z-score is inactive: -1.96.

In the case of GGCUACCCUUUUGAACCUCTT against Psmd3, the z-score was active: -2.81.

With GGACAAGGUCUUUAAUGUUTT against Fbxo3, the z-score is inactive: -0.263.

Consider GCCAGAACAGAAUCCAGGGTT against Sftpb, for which the z-score was inactive: 0.0141.

Regarding GGGUCUUUCCAUCUACCUCTT against Magel2, the z-score was inactive: 1.18.

Turning to GGUACAGACCUUUGAAAUATT against Apobec2, the z-score is inactive: -0.125.

For GGCAAACCGACAGACUUCUTT against Riok1, the z-score is inactive: -0.033.

Take GGAUCAGGUACACAGCAAGTT against Eci1: the z-score was inactive: -1.58.

Take GGAUCCUAUAUGUUCUUUGTT against Cabp2: the z-score was inactive: -0.00915.

In the case of GCCACUACAUAAAAUAGUCTT against Ube2z, the z-score is inactive: 0.0966.

In the case of “GGACGUAGCUAUGGAGGAUTT against 1810009A15Rik”, the z-score was inactive: -1.83.

With GGCUAGACUACAUCACAGCTT against Pfdn6, the z-score is inactive: 0.818.

In the case of GGAACACAAAUUGUGCUUATT against Zfp462, the z-score is inactive: 0.199.

Consider GGAUGGACUCUGUUCCUGUTT against Susd2, for which the z-score was inactive: 0.956.

For “GGCUGACAAGAGAUUUAAATT against 4930430F08Rik”, the z-score is inactive: -0.703.

GGCUGAGGCUCAUUACAAGTT against Zfp385c: the z-score is inactive: -0.843.

Consider CCUUCUCCUCGUGCAAGUATT against Cort, for which the z-score was active: 2.05.

For the sequence GGCAAAUUUGGAAACGUGUTT against Aurkb, the z-score is inactive: -0.0577.

Regarding GCACUUUGGUUUUACCGCCTT against Zfp385a, the z-score was inactive: 0.518.

As for GGGUUAAUCCCUAUCUCUUTT against Tfe3, the z-score is inactive: 0.419.

Regarding CCUUAUCUCUACCAUCGGUTT against Hyal2, the z-score was inactive: 0.0745.

Regarding GGAUGAAGGAACUAAAUAUTT against Cog3, the z-score was active: -2.15.

As for “GGUAAUAAACGGUAAAUUGTT against B430306N03Rik”, the z-score is inactive: -0.763.

For the sequence GCUUGACUUGGUAUGUUUATT against Ces2e, the z-score was inactive: 1.61.

Take GGUAUUCAGAAAUAUCAAGTT against Cpq: the z-score was inactive: 0.315.

As to CCAAUGUCAAGCAACUUCATT against Arnt2, the z-score is inactive: -0.287.

As for GGAAAAGCUACCUGUGUCATT against Tril, the z-score was inactive: -1.88.

As for GGAAGUAUGUCCAGUCAUATT against Ifit3, the z-score was inactive: 0.379.

On to CCUUUAGGUACCACGAGUGTT against Large2, for which the z-score is inactive: -0.965.

In the case of GGAAGUACUAUUACUGGACTT against Epha7, the z-score was inactive: 0.149.

Turning to GGAAUUGGCAACAUAAAAATT against Vldlr, the z-score is inactive: -0.96.

Regarding GGUAGUGGAGUUCAAGUCCTT against Dnah1, the z-score is inactive: 0.0582.

Take GGGCAAGUAUACCUUCAAUTT against Morn5: the z-score was inactive: -0.016.

In the case of GGUCCACAAGUUCAUCGUCTT against Rpa1, the z-score was inactive: -1.13.

As to GGUAUCUUCUCUUGGAAAATT against Tex12, the z-score was inactive: -0.533.

For the sequence GGGUCCAUGAACUCAAGAUTT against Rrnad1, the z-score is inactive: 0.473.

As for CGGUCCACAUGAUCAUUCCTT against Dlg2, the z-score was inactive: 1.79.

As for GGAGCUGGAAAGUUACCGATT against Bdh2, the z-score was inactive: 0.238.

Consider GGACAGCUACAAGAGGAGATT against Fbxl4, for which the z-score is inactive: 1.44.

In the case of GGAGGAACAGAGAGUUUGGTT against Kifc2, the z-score is inactive: 0.429.

Take GCUAAUGAUACAGAAGUUGTT against Snrpb2: the z-score was inactive: 0.661.

In the case of CCCACACAAUUCUCAUGGGTT against Olfr366, the z-score is inactive: 0.661.

Consider CGACCCAUCCAUCUUUAUCTT against Dlg4, for which the z-score was inactive: 0.683.

As to GGUAAAAGAGUCGUGUUUCTT against Amigo2, the z-score was inactive: -0.437.

In the case of GGCUACAUUUCUGUUCUGATT against H2bc6, the z-score is inactive: -0.305.

GGGAAUCAACGCAAAGUUGTT against Pcdhga5: the z-score is inactive: -0.00294.

CCUAUACCAGAUUUACAGGTT against Mtx1: the z-score was inactive: 1.09.

As for GGAAGUCCUUAGGUUUGGCTT against S1pr5, the z-score is inactive: 1.61.

With GCAAAUUGGUCAUCGACUGTT against Alg1, the z-score is inactive: 0.0456.

As to GGCAACGGUUGAAUAAACATT against Mrgpra3, the z-score was inactive: -1.36.

Consider GCGCAAUUAAAGAAGAACATT against Tcerg1, for which the z-score is inactive: 1.22.

On to GGAAUUUUAUCAUUGGGACTT against Wdr66, for which the z-score was inactive: -0.828.

Regarding GCUUGUGGAUUUUUAGUGATT against Mtfr2, the z-score was inactive: 1.12.

On to CCCUCGAAAAGACAGUGAGTT against Tbx1, for which the z-score was inactive: 0.00419.

Consider GGUCAACUAAGUUAAAUGGTT against Pnma2, for which the z-score is inactive: 0.666.

For the sequence GCUCUCACAGGAUAAGGCUTT against Cryga, the z-score was inactive: -0.126.

Turning to GGCCCAAGAGCAUUCUGGATT against Slc25a19, the z-score is inactive: 0.552.

As to GGCUUUGCUAGACACGGCUTT against Crtc3, the z-score was inactive: -1.7.

Regarding GCGAGCUGUAAAUGGAUCUTT against Gper1, the z-score was inactive: -0.116.

On to GGACGGAGGAUUCUGAAACTT against Prepl, for which the z-score is active: 2.42.

For CCCUGAAGGCUUACUUUUUTT against Cfap299, the z-score is inactive: -0.231.

For GGAAUGAUUUGGAAGAUAUTT against C1galt1c1, the z-score was inactive: -1.14.

As to GCUAAUCACUGAAUGCUUCTT against Atxn10, the z-score is inactive: -0.768.

In the case of GGCCAUAUUUGUUGUUGUUTT against Phgr1, the z-score was inactive: -0.342.

On to GGACAGUUCAGAACAAAUUTT against Ccbe1, for which the z-score was inactive: -0.168.

Regarding GCUAAGCUUGUCUAAAAUCTT against Ttk, the z-score is inactive: 0.0991.

Take CCCAAAGCGUGACUGUCAATT against Sema4b: the z-score is inactive: -0.623.

Regarding GGAACUAACAGCCCUACUATT against Sprn, the z-score was inactive: -0.601.

Take GGUUGUUAUGGUCUCAUAUTT against Lrrc40: the z-score is inactive: -0.62.

With GGUUCAGAAUCAAUACGAGTT against Krt2, the z-score is inactive: -0.909.

For GGAGAAACUGGCAGACCUUTT against Washc3, the z-score was inactive: -0.388.

GCCUAACGGAGAGGUAUUUTT against Gal3st1: the z-score was inactive: -0.505.

In the case of GGCAAGGAUGAUGUCUUCGTT against Upk1a, the z-score was inactive: -1.33.

In the case of GUUCUUACACCCAUCUUGATT against Olfr1414, the z-score is inactive: -0.814.

On to GCAAUAACCCAAUUCCUGATT against Phex, for which the z-score is inactive: 0.179.

As for GCAUAGAUGAAGCAAUACUTT against Ugp2, the z-score is inactive: -0.353.

Consider GGCAUUGCAUGUGCACGAUTT against Ror1, for which the z-score is inactive: -0.867.

Regarding GGCAGGAGCAAAACAUUUUTT against Olfr1111, the z-score is inactive: 1.58.

Take GGUCCUCAGCAGUCAUCAUTT against Sprr2h: the z-score is inactive: -1.55.

Turning to GGCAACAAAUCAAAGCAGCTT against Anxa7, the z-score was inactive: 1.4.

Consider GGUUUUUCAAACAAGAGCATT against Slc16a10, for which the z-score was inactive: -1.05.

For the sequence GGGACUUUAGAUGAAAAAATT against Efcab1, the z-score was inactive: 0.318.

On to GGGCUGUUCUAAUUCCUUCTT against Il17f, for which the z-score is inactive: 1.73.

As to GCUUUAUUCCUACCGGGAUTT against Dgat1, the z-score was inactive: 0.557.

On to GGAGAUAUUUUUCUUGUCCTT against Vcp, for which the z-score was inactive: -1.31.

Consider GGAAUUUGUAAAUUUCCGATT against Nipsnap2, for which the z-score is inactive: 0.0708.

Take GGCUCAGUAAGGACUCUGATT against Tac2: the z-score was inactive: 1.24.

GGAGGAAAAAAAGUGAAGATT against Ovol2: the z-score was inactive: 0.175.

For GGUGAAACGCAAAAUAUUCTT against Klkb1, the z-score is inactive: -0.0472.

Turning to GCCAACGCAGCAAAAGCUCTT against Rsrp1, the z-score was inactive: 0.0495.

For CGUAUCAGAUCGGGACUUUTT against Ifnk, the z-score was inactive: 1.07.

CCAUUCUACACUUUUCCACTT against Krtap1-5: the z-score is inactive: -0.909.

Take GGACUCAUUUGUGAACAGCTT against Agap3: the z-score was inactive: 0.532.

Turning to GGCCUUUCAGACUGUAUUGTT against Npr2, the z-score was inactive: 0.584.

Take GGCAAAAUCGUGGUUUCACTT against Cd53: the z-score was inactive: -0.321.

Turning to GCGCAUACAGGAAUUUUUATT against Helb, the z-score is inactive: -0.56.

Take UAUUGUCACCGUCUUAGGCTT against Olfr1028: the z-score is active: -2.84.

On to CCUCCCAUGGUUCUUUCGUTT against Atp5g2, for which the z-score is inactive: 0.514.
